Measured data: PubChem BioAssay AID504804 (Drosophila RNAi Screening Center, 2011)
The screen tested about 19,000 reagents; this is an unselected part of those that have a named target and a result. Of all reagents, 47 (0.25%) got an active call. 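Signals are raw, not normalised; exact z-scores behind calls not deposited; actives needed confirmation, so some wells reaching 2 SD are inactive.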 A plus sign joins genes that one reagent is predicted to hit.

Aim: 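Knock-downs shielding fly cells from apoptosis caused by DNA damage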 (primary screen)
Cell system: Drosophila Kc cells
Knock-down reagent: long dsRNA against Drosophila genes, 0.5 µg dsRNA per well
Duration: 96 h (48 h knock-down, then 48 h drug)
Conditions: doxorubicin 5 µg/ml for 48 h, added 48 h after dsRNA
Measurement: 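Viability measured as cellular ATP by luminescence after 48 h knock-down then 48 h doxorubicin at 5 µg/ml; unnormalised plate counts for each replicate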
Scale: raw ATP luminescence: higher = more viable cells, protection from doxorubicin
Call rule: 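z-score of 2 or more over plate mean in both duplicates, retained only when retests and separate dsRNAs confirm the protection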

predicted target | dsRNA | SD above plate mean | raw ATP luminescence, replicate 1 | raw ATP luminescence, replicate 2 | Call
CG4467 | DRSC15585 | – | 52690 | 57220 | inactive
Pi4KIIalpha | DRSC12322 | – | 50270 | 23480 | inactive
Pi4KIIalpha | DRSC12323 | – | 64733 | 54587 | inactive
CG7299 | DRSC03043 | – | 49417 | 80733 | inactive
alpha-Spec | DRSC08704 | – | 67213 | 64337 | inactive
Neurochondrin | DRSC12580 | – | 47190 | 23403 | inactive
Cortactin | DRSC16612 | – | 42540 | 45140 | inactive
CG33285 | DRSC11463 | – | 60673 | 57763 | inactive
CG15480 | DRSC02490 | – | 53893 | 78410 | inactive
CG6454 | DRSC16044 | – | 51107 | 49520 | inactive
Gr89a | DRSC15023 | – | 67000 | 60640 | inactive
CG7025 | DRSC03002 | – | 22750 | 19563 | inactive
Ilp7 | DRSC17895 | – | 30910 | 42900 | inactive
Ravus | DRSC15126 | – | 79110 | 54290 | inactive
uex | DRSC20784 | – | 2.12e5 | 2.37e5 | inactive
uex | DRSC20786 | – | 2.48e5 | 2.40e5 | inactive
CG13609 | DRSC14612 | at least 2 SD above plate mean | 1.03e5 | 1.01e5 | inactive
CG9445 | DRSC05006 | – | 39963 | 1.10e5 | inactive
CG34249 (retired record) | DRSC09431 | – | 83957 | 85720 | inactive
Tcs5 | DRSC09774 | – | 93573 | 85977 | inactive
Sfmbt | DRSC02552 | – | 1.10e5 | 66597 | inactive
Amph | DRSC07578 | – | 59320 | 56083 | inactive
row | DRSC07076 | – | 49647 | 73653 | inactive
CG7329 | DRSC03046 | – | 27073 | 71760 | inactive
CG4049 | DRSC04443 | – | 66980 | 47647 | inactive
Rev1 | DRSC08264 | – | 67227 | 62603 | inactive
EbpIII | DRSC04638 | – | 42023 | 50983 | inactive
CG3592 | DRSC18315 | – | 58100 | 54280 | inactive
CG5079 | DRSC15713 | – | 18880 | 19640 | inactive
CR40354 | DRSC20923 | – | 2.02e5 | 2.42e5 | inactive
Jon99Fii | DRSC15430 | – | 44350 | 43290 | inactive
CG18518 | DRSC01509 | – | 2.91e5 | 1.90e5 | inactive
eIF4E4 | DRSC09701 | – | 67707 | 72437 | inactive
Cnx99A + Cnx14D | DRSC16610 | – | 33700 | 39150 | inactive
Ugt35C1 | DRSC16080 | – | 62777 | 64273 | inactive
RhoGEF3 (retired record) | DRSC08266 | – | 50343 | 58597 | inactive
tctn + B9d2 | DRSC03160 | – | 24753 | 23703 | inactive
CG13408 | DRSC13534 | – | 1.59e5 | 1.94e5 | inactive
CG13408 | DRSC14584 | – | 51150 | 60270 | inactive
in | DRSC11888 | – | 61283 | 58813 | inactive
EMC10 | DRSC11850 | – | 66670 | 56450 | inactive
Actbeta | DRSC17185 | – | 1.65e5 | 1.72e5 | inactive
Actbeta | DRSC17217 | – | 43770 | 68530 | inactive
CG17192 | DRSC15186 | – | 78170 | 70530 | inactive
CG33299 | DRSC01085 | – | 2.55e5 | 2.53e5 | inactive
HmgZ | DRSC03888 | – | 1.15e5 | 1.20e5 | inactive
HmgZ | DRSC04620 | – | 59680 | 58543 | inactive

Next part, starting with the last 9 of the part before.
predicted target | dsRNA | SD above plate mean | raw ATP luminescence, replicate 1 | raw ATP luminescence, replicate 2 | Call
CG13408 | DRSC14584 | – | 51150 | 60270 | inactive
in | DRSC11888 | – | 61283 | 58813 | inactive
EMC10 | DRSC11850 | – | 66670 | 56450 | inactive
Actbeta | DRSC17185 | – | 1.65e5 | 1.72e5 | inactive
Actbeta | DRSC17217 | – | 43770 | 68530 | inactive
CG17192 | DRSC15186 | – | 78170 | 70530 | inactive
CG33299 | DRSC01085 | – | 2.55e5 | 2.53e5 | inactive
HmgZ | DRSC03888 | – | 1.15e5 | 1.20e5 | inactive
HmgZ | DRSC04620 | – | 59680 | 58543 | inactive
CG15638 | DRSC01875 | – | 69640 | 62330 | inactive
srl | DRSC12340 | – | 67480 | 52437 | inactive
CG32733 (retired record) | DRSC17481 | – | 1.29e5 | 1.50e5 | inactive
CG42272 | DRSC08766 | – | 2.03e5 | 1.80e5 | inactive
CG31798 | DRSC01702 | – | 2.86e5 | 2.60e5 | inactive
Ror | DRSC03414 | – | 51263 | 92923 | inactive
B9d1 | DRSC14993 | – | 84090 | 61620 | inactive
Trpm | DRSC06629 | – | 61573 | 76100 | inactive
Cks85A | DRSC16562 | – | 63580 | 54013 | inactive
unc-5 | DRSC05545 | – | 76017 | 90653 | inactive
CG3566 | DRSC18311 | – | 49170 | 53990 | inactive
CG17349 | DRSC02610 | – | 48683 | 45900 | inactive
Lcp65Ag3 | DRSC10345 | – | 89893 | 1.05e5 | inactive
alpha-Est1 | DRSC12612 | – | 36570 | 44877 | inactive
barc | DRSC11792 | – | 30307 | 28247 | inactive
park + Targ3 | DRSC11617 | – | 22333 | 24233 | inactive
CG43339 + CG43338 | DRSC02466 | – | 75657 | 61573 | inactive
CG9164 | DRSC19087 | – | 1.87e5 | 1.71e5 | inactive
Pde8 | DRSC04503 | – | 66187 | 53507 | inactive
CG18417 | DRSC10319 | – | 1.09e5 | 89170 | inactive
dpr4 | DRSC14531 | – | 61490 | 53757 | inactive
dpr4 | DRSC14929 | – | 60383 | 61070 | inactive
Gpo1 | DRSC07128 | – | 46967 | 58843 | inactive
Mur82C | DRSC12011 | – | 38083 | 34693 | inactive
Mur82C | DRSC12212 | – | 63017 | 60120 | inactive
CG5693 | DRSC02878 | – | 70290 | 67243 | inactive
CG33278 | DRSC10336 | – | 77697 | 82747 | inactive
CG33489 | DRSC10588 | – | 70827 | 52390 | inactive
Ir100a | DRSC14329 | – | 46090 | 59900 | inactive
p24-1 | DRSC19827 | – | 3.11e5 | 3.07e5 | inactive
TfIIS | DRSC03455 | – | 68650 | 63530 | inactive
PIG-H + Kmn2 | DRSC12653 | – | 84947 | 59607 | inactive
sei | DRSC04713 | – | 56463 | 59390 | inactive
CG31867 | DRSC03338 | – | 37390 | 62167 | inactive
CG12926 | DRSC06239 | – | 44130 | 66437 | inactive
Inx7 | DRSC18784 | – | 56620 | 40570 | inactive
CG6733 | DRSC16103 | – | 1.09e5 | 89120 | inactive
PAN3 | DRSC08190 | – | 50610 | 44333 | inactive
CG1827 | DRSC06719 | – | 46310 | 39183 | inactive
Prosalpha1R + Prosalpha1 | DRSC07515 | – | 63467 | 60240 | inactive
dind | DRSC16294 | – | 78253 | 56890 | inactive
GNBP2 | DRSC10404 | – | 29587 | 28127 | inactive
MED30 | DRSC08516 | – | 46163 | 57840 | inactive
CG2736 | DRSC04314 | – | 65387 | 83927 | inactive
CG13021 | DRSC17893 | – | 54420 | 51850 | inactive
His2B:CG33870 + His2B:CG33868 + His2B:CG33882 + 21 more | DRSC03757 | – | 47447 | 57433 | inactive
JYalpha | DRSC17224 | – | 54100 | 59040 | inactive
fz4 | DRSC18780 | – | 41120 | 45370 | inactive
RpS17 | DRSC11271 | – | 62543 | 58097 | inactive
CG2127 | DRSC06821 | – | 61273 | 82487 | inactive
Cyp28d2 | DRSC03299 | – | 23160 | 35633 | inactive
mtm | DRSC03576 | – | 96970 | 53533 | inactive
Vmat + CG13330 | DRSC06365 | – | 56747 | 57107 | inactive
CG15170 | DRSC02471 | – | 65790 | 65260 | inactive
Tmtc2 | DRSC00272 | – | 1.06e5 | 69653 | inactive
CG5727 | DRSC02882 | – | 70340 | 59980 | inactive
stl | DRSC04396 | – | 74533 | 63283 | inactive
Tim9a | DRSC19753 | – | 3.30e5 | 3.33e5 | inactive
Ir94f | DRSC13621 | – | 2.08e5 | 1.81e5 | inactive
Vajk2 | DRSC02540 | – | 79403 | 68060 | inactive
